The source of these data is publication PMC2821923, “Visualizing Interactions along the Escherichia coli Twin-Arginine Translocation Pathway Using Protein Fragment Complementation” (PLoS ONE, 2010).

In this assay the target is T1, TatC fused to a YFP fragment (TatC-Y1; TatC-Y2) (E. coli) (UniProt P69423).
T1 sequence: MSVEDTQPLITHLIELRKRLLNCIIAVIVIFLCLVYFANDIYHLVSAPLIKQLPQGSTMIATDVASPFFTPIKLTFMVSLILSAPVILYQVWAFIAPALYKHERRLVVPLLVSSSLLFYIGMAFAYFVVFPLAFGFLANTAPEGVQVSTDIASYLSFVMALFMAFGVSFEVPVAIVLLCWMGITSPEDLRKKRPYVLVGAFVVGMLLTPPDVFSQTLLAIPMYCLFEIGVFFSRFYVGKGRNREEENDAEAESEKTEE
The experiment in a line: co-sedimentation; soluble and membrane fractions (top of the 70% sucrose layer) of TG1 ΔtatABCE cells expressing ssDmsA-Y1 alone or with TatC-Y2; anti-FLAG Western blot.

No constants are given. Whether binding was seen depends on the method and setting. In cells and extracts the contact can be indirect. Binding can be weak; no strength is given. Where a sequence is shown, tags or fusion partners need not be part of it.

Consider “ssDmsA-Y1 (DmsA signal peptide fused to the N-terminal YFP fragment) (E. coli) (domain or fragment)”, for which the binding result is recorded as “binds”.
